Assay results: article PMC12270911
No constants are given. Whether binding was seen depends on the method and setting. In cells and extracts the contact can be indirect. These calls come from enrichment with a bait or labelling near it, and not all partners need be listed. Values belong to the binder of their own block, whether it stands above or below them.

Target: VDD-3FLAG (Arabidopsis (Col-0))
Experiment: affinity purification with mass spectrometry; around 10 g floral tissue of FLAG-tagged transgenic plants, Col-0 as control; IP buffer 50 mM Tris-HCl pH 8.0, 150 mM NaCl, 5 mM EDTA, 10% glycerol, 0.1% Tergitol; anti-FLAG M2 magnetic beads, 4 °C 2 h; eluted with 3×FLAG peptide; LFQ by MaxQuant

binding: binds
B1: CLSY3, endogenous (protein, UniProt F4I8S3 1-1410)
chain: MECIGKRVKSRSWQRLQAVNKRKKMETVAPVTSPPKKRRQKKPKNYDSDIEDITPTCNDSVPPPQVSNMYSVPNNSVKESFSRIMRDLNVEKKSGPSSSRLTDGSEQNPCLKERSFRVSDLGVEKKCSPEITDLDVGIPVPRFSKLKDVSEQKNTCLMQKSSPEIADLDLVISVPSSSVLKDVSEEIRFLKDKCSPEIRGLVLEKSVPGEIEILSDSESETEARRRASAKKKLFEESSRIVESISDGEDSSSETDEEEEENQDSEDNNTKDNVTVESLSSEDPSSSSSSSSSSSSSSSSSSSDDESYVKEVVGDNRDDDDLRKASSPIKRVSLVERKALVRYKRSGSSLTKPRERDNKIQKLNHREEEKKERQREVVRVVTKQPSNVVYTCAHCGKENTGNPESHSSFIRPHSIRDEIEDVNNFASTNVSKYEDSVSINSGKTTGAPSRPEVENPETGKELNTPEKPSISRPEIFTTEKAIDVQVPEEPSRPEIYSSEKAKEVQAPEMPSRPEVFSSEKAKEIQVPEMPSIPEIQNSEKAKEVQANNRMGLTTPAVAEGLNKSVVTNEHIEDDSDSSISSGDGYESDPTLKDKEVKINNHSDWRILNGNNKEVDLFRLLVNSVWEKGQLGEEDEADELVSSAEDQSQEQAREDHRKYDDAGLLIIRPPPLIEKFGVEEPQSPPVVSEIDSEEDRLWEELAFFTKSNDIGGNELFSNVEKNISANETPAAQCKKGKHDLCIDLEVGLKCMHCGFVEREIRSMDVSEWGEKTTRERRKFDRFEEEEGSSFIGKLGFDAPNNSLNEGCVSSEGTVWDKIPGVKSQMYPHQQEGFEFIWKNLAGTIMLNELKDFENSDETGGCIMSHAPGTGKTRLTIIFLQAYLQCFPDCKPVIIAPASLLLTWAEEFKKWNISIPFHNLSSLDFTGKENSAALGLLMQKNATARSNNEIRMVKIYSWIKSKSILGISYNLYEKLAGVKDEDKKTKMVREVKPDKELDDIREILMGRPGLLVLDEAHTPRNQRSCIWKTLSKVETQKRILLSGTPFQNNFLELCNVLGLARPKYLERLTSTLKKSGMTVTKRGKKNLGNEINNRGIEELKAVMLPFVHVHKGSILQSSLPGLRECVVVLNPPELQRRVLESIEVTHNRKTKNVFETEHKLSLVSVHPSLVSRCKISEKERLSIDEALLAQLKKVRLDPNQSVKTRFLMEFVELCEVIKEKVLVFSQYIDPLKLIMKHLVSRFKWNPGEEVLYMHGKLEQKQRQTLINEFNDPKSKAKVFLASTKACSEGISLVGASRVILLDVVWNPAVERQAISRAYRIGQKRIVYTYHLVAKGTPEGPKYCKQAQKDRISELVFACSSRHDKGKEKIAEAVTEDKVLDTMVEHSKLGDMFDNLIVQPKEADLVEGFSILMP

binding: binds
B2: RDM4 (protein, UniProt Q8GYP3 1-346)
chain: MDGVGESSTQNEVEEKPVIVRVKRKVGQSLLDAFWLEINERPLKRPTLDFSKLSISDSGERGPSVAEDVKPKKVLVRHLETVTDSETTADIIHSFFESDHNEKSCSKGKFEERKIAFKKDNRKEQRLTKSVQKQQIASENARFEQIWRSRKGNKEGIHEKCHFFDVIRVDTEERRDNAQEFTSLEDQKMLASFLPLLRECIPTAAEEIEADIQSSHTEEYVYDYYAVNEEMDISEDSSKNQFPLVIVEDEEEFCDGSDESDYDSEDSNAEDHPKTDYPEEEEEEEEEDDDDDDDDESEEEKSEASDESDDEETSKRHVRSVLGDDEFDDYAEDVYGYSESDEEFES

binding: binds
B3: REM12 (protein, UniProt P0CAP4 1-446)
chain: MVLNSSDLGPSRCDIRDLPAPSSTNDQGKTELARKKKVKRSNTEIEADASSSDNSCFVALVTASNLRKDALYLPQDLTSSVGLERKYREIVVTDERERRSWALDLRFNKSSDTFYISRGWRSFCDENGKKPGGVFVFKLVGNRETPVLSFCSTESINDGTQGHKNNKYNCMELKSKKKRMRCRDSTSPSQNRFMTLTLTHDNLIKSRRYLPLSFTRDNGLDKPGMIFLLGKTGRKWEANLLREASGRIVLTGKGWKEFAMANGLKSGELFTLEAILEKGTPMLSLVNTQSTNYRSQQGECSRDSEKESSICAEPSRGNKKWKATNNRKERRDSSSAIQNRYVTLTLTPEDVRACTLILPSQFMKANGINKLGKKTLLGQNRKKWFAYLLSKSGFVALGSGWKGFCEANGVKTGESFNLEYIDEQDTTPVFKFCSNSVEYVKFTSLP
